Hit rate of the full screen: of about 300,000 compounds, about 5,400 (1.8%) were called active. The inconclusive results got no clear call from the source; some entries with a clear call stand among them for comparison. Calls follow the shape of the full dose curve; tested in HEK293 cells. Potencies of inconclusive entries are doubtful fits and often do not repeat.
Experiment: qHTS for inhibitors of binding or entry into cells for Marburg Virus
Conditions: Marburg virus pseudotyped entry inhibition, cell reporter; series mostly up to 37.8 µM
Potency is read from the fitted curve at half-maximal effect.

Question: Which Potency does the source give for `Cc1ccc(S(=O)(=O)N(CC2CO2)c2ccccc2[N+](=O)[O-])cc1` (stereo not given) here?
Answer: inconclusive: 6.31 µM [inhibitor, single point]

Question: With `CC(C)CCN1CCN(CC(c2ccccc2)c2ccccc2)CC1CCO` (stereo not given) as the compound, how does the Potency read?
Answer: inconclusive: 12.6 µM [inhibitor, partial curve, poor fit]

Question: For `CCN(c1ccccc1)S(=O)(=O)c1ccc(Cl)c(C(=O)NC2CCN(Cc3ccccc3)CC2)c1`, which Potency is on record?
Answer: inconclusive: 35.5 µM [inhibitor, single point]

Question: With `CC(=O)n1nc(-c2ccco2)nc1N` as the compound, how does the Potency read?
Answer: inconclusive: 1.58 µM [inhibitor, partial curve, poor fit]

Question: Which Potency does the source give for `Cc1ccc(-c2noc(CCC(=O)NC3CC3)n2)cc1` here?
Answer: inactive

Question: For `CC1=Nc2cc(C(=O)NCCCOC(C)C)ccc2Sc2ccccc21`, which Potency is on record?
Answer: inconclusive: 1.46 µM [inhibitor, partial curve, poor fit]

Question: With `CCOC(=O)c1nnn(-c2nonc2N)c1CSc1nnc(N)s1` as the compound, how does the Potency read?
Answer: inactive

Question: For `CC(=O)Nc1ccc(NC(=O)Cc2sc(-c3cccnc3)nc2-c2ccc(C)cc2)cc1`, which Potency is on record?
Answer: inconclusive: 20 µM [inhibitor, single point]

Question: For `Nc1ncnc2c1nc(Sc1ccc(Cl)cc1)n2[C@H]1OC2COP(=O)(O)O[C@@H]2C1O` (stereo not given in full), which Potency is on record?
Answer: inactive

Question: With `C#CCCCO/N=C1\C[C@@H](O)[C@@H](O)[C@@H]2[C@@H]3C(=O)N(C4CCCCC4)C(=O)[C@@H]3CC[C@H]12` as the compound, how does the Potency read?
Answer: inconclusive: 0.422 µM [inhibitor, partial curve, poor fit]

Question: For `NC1=NC(=O)/C(=C/c2cn(Cc3ccccc3)c3ccccc23)S1`, which Potency is on record?
Answer: inactive

Question: With `CC(CN1C(C)CCCC1C)OC(=O)c1ccc(Cl)cc1Cl` (stereo not given) as the compound, how does the Potency read?
Answer: inactive

Question: With `C/C(=N/NC(=O)c1cccc(C)c1)c1c(O)cc(C)oc1=O` as the compound, how does the Potency read?
Answer: inconclusive: 7.08 µM [activator, full curve]

Question: Which Potency does the source give for `CN(C)CC/C=C1/c2ccccc2Sc2c(O)cc(Cl)cc21` here?
Answer: inconclusive: 35.5 µM [inhibitor, single point]

Question: Which Potency does the source give for `CCCCc1ccc(NC2=NCCCS2)cc1` here?
Answer: inconclusive: 7.08 µM [inhibitor, partial curve, poor fit]

Question: Which Potency does the source give for `COc1cccc(CN(CCC(C)C)S(=O)(=O)c2cc(Br)ccc2Br)c1` here?
Answer: inconclusive: 11.2 µM [inhibitor, partial curve, poor fit]

Question: With `Cc1ccccc1C(=O)NCC(c1ccco1)N1CCc2ccccc21` (stereo not given) as the compound, how does the Potency read?
Answer: inconclusive: 12.6 µM [inhibitor, partial curve, poor fit]

Question: For `CCOC(=O)OC[C@H]1O[C@H](C#Cc2ccccc2)C=C[C@H]1OC(=O)OCC`, which Potency is on record?
Answer: inconclusive: 0.0075 µM [activator, partial curve, poor fit]

Question: Which Potency does the source give for `COc1ccc(Oc2nc(C(F)(F)F)nc3ccccc23)cc1` here?
Answer: inconclusive: 17.8 µM [inhibitor, single point]

Question: For `CCOc1ccc(-c2nnn(CC(=O)NCc3ccc(C)cc3)n2)cc1`, which Potency is on record?
Answer: inconclusive: 11.2 µM [inhibitor, partial curve, poor fit]

Question: For `CCCCn1cc(S(=O)(=O)c2ccc(OC)cc2)c(=O)c2cc(CC)ccc21`, which Potency is on record?
Answer: inconclusive: 35.5 µM [inhibitor, single point]

Question: With `Cc1c(C)n(C(=O)CN2CCN(c3ccccn3)CC2)c2ccccc12` as the compound, how does the Potency read?
Answer: inconclusive: 1.12 µM [inhibitor, single point]

Question: Which Potency does the source give for `Cc1cc(C)nc(N2CCN(c3nnnn3-c3ccccc3)CC2)n1` here?
Answer: inactive

Question: For `COc1ccc(N=C(C)C2=C(O)c3ccccc3C2=O)cc1`, which Potency is on record?
Answer: inconclusive: 31.6 µM [inhibitor, partial curve, poor fit]

Question: Which Potency does the source give for `N[C@@]12CCc3nonc3[C@]1(O)CC(c1ccccc1)=[N+]2[O-]` here?
Answer: inconclusive: 5.62 µM [activator, single point]

Question: Which Potency does the source give for `CNc1ccccc1C(C)(C)c1cc(-c2cccc(Br)c2)no1` here?
Answer: inconclusive: 1.78 µM [inhibitor, full curve, poor fit]

Question: With `COc1ccc(-c2nnc(SCC(=O)N(Cc3ccccc3)C(C)(C)C)o2)cc1OC` as the compound, how does the Potency read?
Answer: inconclusive: 23.1 µM [inhibitor, single point]

Question: For `O=S(=O)(CCN1CCOCC1)c1ccc(Oc2ccc(S(=O)(=O)CCN3CCOCC3)cc2)cc1`, which Potency is on record?
Answer: inconclusive: 0.562 µM [inhibitor, full curve]

Question: For `O=C(NCCN1CCOCC1)c1cc(Sc2cccc(Cl)c2)nc2ccccc12`, which Potency is on record?
Answer: inconclusive: 3.55 µM [inhibitor, single point]

Question: With `Cc1oc2c(c1C(=O)NCc1cc(C(=O)O)co1)CCCC2` as the compound, how does the Potency read?
Answer: inactive

Question: With `CCCCOP(=O)(OCCCC)C(O)c1ccc(N(C)C)cc1` (stereo not given) as the compound, how does the Potency read?
Answer: inactive

Question: Which Potency does the source give for `COc1ccc(NC(=O)COc2cccc(-n3cnnn3)c2)cc1Cl` here?
Answer: inconclusive: 11.2 µM [activator, single point]

Question: For `Cc1ccc(C2CC(c3cccs3)=NN2S(=O)(=O)c2ccc(C)cc2)cc1` (stereo not given), which Potency is on record?
Answer: inactive

Question: Which Potency does the source give for `COc1ccc(Cc2noc(CN(C)C3CC(C)(C)NC(C)(C)C3)n2)cc1OC` here?
Answer: inconclusive: 1.78 µM [inhibitor, partial curve, poor fit]

Question: Which Potency does the source give for `CCOC(=O)C1CCCN(CC(=O)c2ccc(F)cc2)C1` (stereo not given) here?
Answer: inactive

Question: Which Potency does the source give for `O=S(=O)(NCc1ccccn1)c1ccccc1` here?
Answer: inactive

Question: For `CCNC(=O)CSc1nc2ccccc2c(=O)n1-c1cccc(OC)c1`, which Potency is on record?
Answer: inactive

Question: Which Potency does the source give for `S=c1[nH]nc(-c2ccco2)n1/N=C/c1cccc(Cl)c1Cl` here?
Answer: inconclusive: 0.316 µM [activator, full curve, poor fit]

Question: Which Potency does the source give for `Cc1cc(C)c2c(c1)CO[C@H]([C@H](O)CO)[C@H]2C=Cc1ccccc1` here?
Answer: inconclusive: 2.66 µM [inhibitor, partial curve, poor fit]

Question: For `CC(=O)N1CCN(c2ccc(NC(=O)c3ccccc3C)cc2)CC1`, which Potency is on record?
Answer: inconclusive: 1.26 µM [inhibitor, single point]

Question: Which Potency does the source give for `Cn1nc(C(=O)OCc2ccc(F)cc2)c2ccccc2c1=O` here?
Answer: inactive

Question: With `COCCNC(=O)CSc1nc(-c2cc(OC)c(OC)c(OC)c2)[nH]c1-c1ccc(Cl)cc1` as the compound, how does the Potency read?
Answer: inconclusive: 35.5 µM [inhibitor, single point]

Question: Which Potency does the source give for `OC(CN=c1sc2ccccc2n1CC(O)COc1ccccc1)COc1ccccc1` (stereo not given) here?
Answer: inconclusive: 14.6 µM [inhibitor, partial curve, poor fit]

Question: With `O=[N+]([O-])c1cc(S(=O)(=O)NCCN2CCOCC2)ccc1Cl` as the compound, how does the Potency read?
Answer: inconclusive: 35.5 µM [inhibitor, single point]

Question: For `Cc1cccnc1NC(=S)Nc1ncccc1C`, which Potency is on record?
Answer: inconclusive: 2.82 µM [activator, partial curve, poor fit]

Question: With `Cc1ccccc1C(=O)NC1CCN(CC(=O)Nc2ccc(Br)cc2)CC1` as the compound, how does the Potency read?
Answer: inactive

Question: Which Potency does the source give for `Cc1cc2c(cc1C)C(c1cccc([N+](=O)[O-])c1)CC(=O)N2` (stereo not given) here?
Answer: active: 4.47 µM

Question: With `COc1ccc2nc(NCc3ccccc3)[nH]c2c1` as the compound, how does the Potency read?
Answer: inactive

Question: Which Potency does the source give for `CCOc1c(C)cc(-c2ncccc2O)cc1C` here?
Answer: inconclusive: 0.146 µM [inhibitor, partial curve, poor fit]

Question: For `O=C(NC1CCSc2ccccc21)c1cccc(S(=O)(=O)N2CCOCC2)c1` (stereo not given), which Potency is on record?
Answer: inconclusive: 1.26 µM [inhibitor, single point]

Question: Which Potency does the source give for `CCCC(O)c1nc2ccccc2n1Cc1ccccc1OC` (stereo not given) here?
Answer: inactive

Question: Which Potency does the source give for `CCC(C)N1C(=O)/C(=C\c2cc3c4c(c2)CCCN4CCC3)C(=O)NC1=S` (stereo not given) here?
Answer: inactive

Question: Which Potency does the source give for `Cc1nc2ccccc2nc1N1CCOCC1` here?
Answer: inactive

Question: With `O=C1CC(NNc2ccccc2)C(=O)N1c1ccc(N2CCCCC2)cc1` (stereo not given) as the compound, how does the Potency read?
Answer: inactive

Question: With `Cc1cc(C)n(-c2nc(SCC(=O)O)c3c4c(sc3n2)COC(C)(C)C4)n1` as the compound, how does the Potency read?
Answer: inactive

Question: Which Potency does the source give for `CCCCCN(C(=O)CCC(=O)OCc1ccccc1F)c1c(N)n(CCCC)c(=O)[nH]c1=O` here?
Answer: inactive

Question: Which Potency does the source give for `CS(=O)(=O)c1ccc(C(=O)Nc2ccc(S(=O)(=O)N3CCCCC3)cc2)cc1` here?
Answer: inconclusive: 1.26 µM [inhibitor, single point]

Question: Which Potency does the source give for `CC(=O)N(CCCCl)C(C#N)c1ccccc1` (stereo not given) here?
Answer: inconclusive: 0.731 µM [inhibitor, partial curve, poor fit]

Question: Which Potency does the source give for `CC1=CC(=C2C(=O)c3ccccc3C2=O)C=C(C)N1C` here?
Answer: inconclusive: 0.891 µM [activator, single point]

Question: Which Potency does the source give for `CCn1c(SCc2cc(=O)[nH]c3ccccc23)nnc1C1CC1` here?
Answer: inactive

Question: With `CCCOc1cccc(C(=O)N(Cc2ccccc2)C2CCS(=O)(=O)C2)c1` (stereo not given) as the compound, how does the Potency read?
Answer: inconclusive: 35.5 µM [inhibitor, single point]

Question: For `CCOc1ccccc1NC(=O)c1ccc2c(Cl)c3c(nc2c1)CCC3`, which Potency is on record?
Answer: inconclusive: 5.62 µM [activator, single point]

Question: With `COc1ccc(OC(C)C(=O)Nc2cccc([N+](=O)[O-])c2)cc1` (stereo not given) as the compound, how does the Potency read?
Answer: inconclusive: 4.11 µM [inhibitor, full curve]

Question: With `O=[N+]([O-])c1ccccc1S(=O)(=O)N(CC(O)CN1CCCCC1)c1ccccc1` (stereo not given) as the compound, how does the Potency read?
Answer: inconclusive: 17.8 µM [inhibitor, partial curve, poor fit]

Question: With `COc1ccc(C(=O)CCN2CCN(c3ccccc3OC)CC2)cc1` as the compound, how does the Potency read?
Answer: inactive

Question: Which Potency does the source give for `CN(Cc1ccc(Cl)cc1)C(=O)c1ccccc1SCC(=O)N1CCCC1` here?
Answer: inconclusive: 3.55 µM [inhibitor, single point]

Question: With `CCOc1ccc(C(C)(C)C)cc1S(=O)(=O)N1CCOCC1` as the compound, how does the Potency read?
Answer: inconclusive: 4.47 µM [activator, single point]

Question: Which Potency does the source give for `CCOC(=O)CC(NC(=O)Cn1nnc(-c2ccccc2)n1)c1ccc(OC)cc1` (stereo not given) here?
Answer: inactive

Question: With `CN1/C(=C/C(=S)NC(=O)C2(C)CC2(Cl)Cl)C(C)(C)c2ccccc21` (stereo not given) as the compound, how does the Potency read?
Answer: inconclusive: 35.5 µM [inhibitor, single point]

Question: Which Potency does the source give for `O=[N+]([O-])c1ccccc1C=NNC(=S)NN=Cc1ccccc1[N+](=O)[O-]` here?
Answer: inconclusive: 7.94 µM [inhibitor, partial curve, poor fit]

Source: PubChem BioAssay AID540276 (National Center for Advancing Translational Sciences (NCATS), 2011)
